## Primary screen of a compound library

Amino acid sequences for entries named in this document (tags omitted).
UniProt P9WNZ1, whole entry: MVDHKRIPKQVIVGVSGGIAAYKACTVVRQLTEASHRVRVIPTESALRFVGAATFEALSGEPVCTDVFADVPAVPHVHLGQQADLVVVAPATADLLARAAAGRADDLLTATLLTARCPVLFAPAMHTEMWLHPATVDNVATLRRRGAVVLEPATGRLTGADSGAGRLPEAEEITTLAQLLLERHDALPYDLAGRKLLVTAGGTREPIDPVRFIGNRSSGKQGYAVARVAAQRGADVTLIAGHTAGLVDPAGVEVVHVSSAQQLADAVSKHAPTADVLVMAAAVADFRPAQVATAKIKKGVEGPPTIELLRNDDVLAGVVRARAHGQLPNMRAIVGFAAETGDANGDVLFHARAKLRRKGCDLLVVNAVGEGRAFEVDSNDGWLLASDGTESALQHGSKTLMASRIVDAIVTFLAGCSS

Measurements from “University of Dundee, Small-Polar-MMV Screening Library” (2021), ChEMBL document CHEMBL3988442.

CoaBC: 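Enzyme assay of CoaBC with a phosphate dye (Biomol Green) read at 650 nm. Target: Coenzyme A biosynthesis protein CoaBC, Mycobacterium tuberculosis (UniProt P9WNZ1). Tested at 30 µM. Higher reads as stronger inhibition, judged from the few compounds that gave an IC50. Most strong results did not repeat in a second test. Of about 67,000 compounds tested this way, about 40 (0.06%) reached 50% or more in at least one test.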
Leishmania in macrophages: 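Cell assay of Leishmania donovani living inside macrophages; the read-out is not stated. Concentration: 30 µM. Higher reads as stronger inhibition (inferred: compounds with an IC50 in retests scored well above the rest). Size under these conditions: about 69,000 compounds, about 1,000 of them at 50% or above in at least one test.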

Each number is a percent effect as filed. How 0% and 100% were set is not recorded. Most values in the screen are low, and negative values occur. This is an unselected part of the compounds tested. Two or more numbers in one place are separate tests of the same structure; such repeats can differ widely. A dash means the value is not listed here; it may have been measured.

SMILES,CoaBC,Leishmania in macrophages
CC(=O)NCC(=O)NC1CCc2nccn2C1 (centres unmarked),4.959%,3.873%
CC(C)NC(=O)N1CCN(S(C)(=O)=O)CC2(CNC(=O)C2)C1 (centres unmarked),4.261%,17.6%
CSCc1cccc(S(=O)(=O)N2CCC(C)CC2)c1,1.48%,-29.79%
O=C(c1ccc(Br)o1)N1CCN(Cc2ccc(OC(F)(F)F)cc2)CC1,-0.2132%,31.07%
CCC(NC(=O)C1CCN(C(=O)C2CC2)CC1)c1cn2cccnc2n1 (centres unmarked),7.172%,26.83%
CN1CCN(Cc2ccc(-c3ccc(-c4ccn[nH]4)cc3)nc2)CC1,3.065%,8.288%
Cc1cccc(CN(Cn2nc(C)c3c(C)onc3c2=O)C2CC2)c1,1.707%,35.49%
CCNC(=O)COc1ccc(C(=O)NC(C)CCc2ccco2)cc1 (centres unmarked),1.923%,15.34%
O=C(O)C(F)(F)F.O=C(O)C(F)(F)F.c1cc(-c2ccc3nc(C4CCN(CC5CC5)CC4)nn3c2)ccn1,-,-65.78%
COc1ccc(CC(=O)N(C)c2cccnc2N(C)C)c(Cl)c1,8.43%,4.335%
CC1=C[C@@H](CN2CCC(O)CC2)[C@H](C(C)C)C[C@H]1Cc1nnc(C)o1,-6.09%,1.746%
O=c1[nH]c(-c2cccnc2)nc2c1CCN(S(=O)(=O)N1CCCC1)C2,1.235%,1.42%
CN(C)c1ncnc2c1CCN(CC1CCCC1)CC2.O=C(O)C(F)(F)F,-,13.39%
Cc1nccc(CNC(=O)NCCOc2ccc(F)c(F)c2)n1,8.316%,3.237%
CCc1ncncc1C(=O)N1CCN(Cc2ccco2)CC1,1.836%,-1.487%
COc1ncc(C)cc1NC(=O)COc1ccccc1F,0.9724%,4.108%
O=C(CC1COCCN1)NCCc1nc(Cc2ccccc2)no1 (centres unmarked),2.609%,38.43%
CNC(=O)CN1CCOCC12CCN(C(=O)c1ccccc1)CC2,-6.694%,-
O=C(O)C(F)(F)F.c1ccc(N2CCCC3(CCN(Cc4cccs4)C3)C2)nc1 (centres unmarked),-,40.37%
Cc1cc(NCCNS(C)(=O)=O)nc2cc3c(cc12)CCC3,-3.571%,22.06%
CCN(CCCNCc1c(C)nn(C)c1N(C)C)S(C)(=O)=O,-0.5263%,-3.701%
O=C1CCN(C(=O)NCc2ccccc2Oc2ccccc2)CCN1,-2.232%,-11.56%
Cc1cc(NCCNc2cccnc2)nc(N)n1,-2.39%,1.255%
O=C(O)C(F)(F)F.O=C(O)C(F)(F)F.c1ccc(O[C@@H]2CO[C@@]3(CCCN(CC4CCOCC4)C3)C2)nc1,-,42.43%
CCN(CC)c1ncnc2c1CCN(CC1CCOCC1)CC2.O=C(O)C(F)(F)F,-,50.25%
Cc1nc(CC(=O)N2CCC(c3ccn4nccc4n3)CC2)cs1,1.598%,-13.12%
Fc1cccc(N2C[C@H]3CCN(c4cccnc4)C[C@H]3C2)c1,-23.81%,-
CC(C)c1nncn1CCNC(=O)c1ccc(Cl)cc1O,-1.205%,-26.24%
[H][C@@]12CCN(c3ccc(C)nn3)C[C@]1([H])[C@H](C(=O)NCCOC)CCO2,-,1.773%
O=C(Cc1ccc(F)cc1Cl)N1C[C@@H](CN2CCC(O)CC2)[C@@H](CO)C1,2.893%,13.55%
Cc1nccn1-c1cc(CNC(=O)C2CCC(=O)N2)ccn1 (centres unmarked),-0.978%,4.793%
Cc1ccoc1-c1nnc(CN2CCCC(Cn3cncn3)C2)o1 (centres unmarked),-0.7772%,22.83%
Cc1cc(C)c2nc(CN3CCC(CN)CC3)cc(O)c2c1,-36.9%,-25.02%
O=C(CCN1C(=O)CCC1=O)Nc1ccc(OCC(F)(F)F)nc1,1.845%,12.1%
CCCn1cnc2c(cnn2-c2cccc(C)c2C)c1=O,3.69%,12.57%
O=C(c1ccc(F)cc1)N1C[C@H]2CCC[C@@]2(COCc2ccccn2)C1,16.71%,-
COCCN1CCN(Cc2noc(C3CC3)n2)CC1C (centres unmarked),-3.856%,-4.685%
CCCN1CCCn2c(nc(CNC(=O)c3ccsc3)cc2=O)C1,-1.25%,-
COc1ccc2nc(C[C@@H]3C[C@@H](C(C)C)[C@H](CN(C)C)C=C3C)[nH]c2n1,-1.58%,21.82%
Cc1ccc(OC2(C(=O)O)CCN(C(=O)c3ccccc3F)CC2)cn1,6.746%,9.608%
Cc1csc(CNC(=O)NCC(O)c2ccc(F)cc2F)n1 (centres unmarked),-0.641%,1.017%
Cc1ccc(CN2CCn3c(C(=O)N(C)C)cnc3C2)s1.O=C(O)C(F)(F)F,-,12.94%
Cc1csc(CN2CC[C@H]3C[C@H](c4ccncn4)O[C@@H]3C2)n1,4.139%,-
Cc1noc(C)c1C(=O)N1CCOC2(COCCN(C(C)C)C2)C1.O=C(O)C(F)(F)F (centres unmarked),-,25.83%
CC(C)COCc1cncc2c1CCN(C(=O)c1cscn1)C2.O=C(O)C(F)(F)F,-,10.63%
Cc1ccccc1C(=O)N1Cc2c(Cn3ccnc3)nn(C)c2C1,1.607%,-
NC(=O)CC1CCN(c2ncnc3cccc(F)c23)CC1,2.233%,14.27%
CN1CCCC1CNC(=O)CCCOc1cccc(Br)c1 (centres unmarked),1.394%,17.62%
Cc1ccc(CC(NC(=O)Cn2cnnn2)c2ccccn2)cc1 (centres unmarked),-0.1212%,-10.27%
CC(C)(N)CN1CCC(c2nnc(CN3CCCC3)n2C2CC2)CC1,-41.07%,21.99%
CN(C)c1ncc2c(n1)N(C)CCN(CC1CC1)C2=O,2.53%,-1.579% & 26.86%
CNc1nc(N2CCN(C)C(CCO)C2)nc2c1CCC2 (centres unmarked),-0.3226%,19.58%
Cc1cccc(OCCCNC(=O)NC(C)c2nncn2C)c1 (centres unmarked),9.719%,7.136%
Cc1cnn(CC(=O)N2CCC3(CCC(=O)N(C4CCCC4)C3)CC2)c1,6.379%,25.45%
CC(NC(=O)NCc1c(F)cccc1Cl)(C(=O)O)c1ccco1 (centres unmarked),0.1304%,20.07%
c1csc(-c2cc(CN3CCN(c4cnccn4)CC3)no2)c1,-1.124%,35.8%
Cc1cc2c(cc1Cl)C=CC1(CCN(CC(=O)N3CCOCC3)CC1)O2,0%,-1.298%
COc1ccc2c(c1)c(-c1nc(N(C)C)ncc1CN)cn2C,2.913%,97.85%
CS(=O)(=O)N1C[C@@H]2CC[C@H](C1)N(Cc1cscn1)C2=O,7.957%,-
CC(NC(=O)NCCOc1ccc(F)c(F)c1)c1nncn1C (centres unmarked),-1.282%,14.04%
Cc1cncc(C(=O)N2CCCC(O)(CO)C2)c1 (centres unmarked),-0.8929%,-0.943%
CN1CCN(CCOc2ccc(NC(=O)c3ccncc3)cc2)CC1,2.93%,3.204%
Fc1ccc(CN2CCOCC3(CCN(Cc4nccs4)C3)C2)cc1 (centres unmarked),6.352%,-
CCc1nc(C2CCCN2Cc2cc(=O)n(C)c(=O)n2C)no1 (centres unmarked),3.133%,28.8%

Repeated from the top, 7 entries:

{"smiles": "CC(=O)NCC(=O)NC1CCc2nccn2C1", "stereo": "centres unmarked", "CoaBC": 4.959, "Leishmania in macrophages": 3.873}
{"smiles": "CC(C)NC(=O)N1CCN(S(C)(=O)=O)CC2(CNC(=O)C2)C1", "stereo": "centres unmarked", "CoaBC": 4.261, "Leishmania in macrophages": 17.6}
{"smiles": "CSCc1cccc(S(=O)(=O)N2CCC(C)CC2)c1", "CoaBC": 1.48, "Leishmania in macrophages": -29.79}
{"smiles": "O=C(c1ccc(Br)o1)N1CCN(Cc2ccc(OC(F)(F)F)cc2)CC1", "CoaBC": -0.2132, "Leishmania in macrophages": 31.07}
{"smiles": "CCC(NC(=O)C1CCN(C(=O)C2CC2)CC1)c1cn2cccnc2n1", "stereo": "centres unmarked", "CoaBC": 7.172, "Leishmania in macrophages": 26.83}
{"smiles": "CN1CCN(Cc2ccc(-c3ccc(-c4ccn[nH]4)cc3)nc2)CC1", "CoaBC": 3.065, "Leishmania in macrophages": 8.288}
{"smiles": "Cc1cccc(CN(Cn2nc(C)c3c(C)onc3c2=O)C2CC2)c1", "CoaBC": 1.707, "Leishmania in macrophages": 35.49}